The list does not hold the whole screen: it is rich in T/C values a quarter to a half above the control, in often repeated tests (any T/C) and in doses without a T/C. Further doses and runs are listed elsewhere. T/C: endpoint of the treated group in % of that of the vehicle group. Some entries give survivors of the animals treated and no T/C: the source files T/C as zero there, which appears to mark a toxic dose or a test without result, not a measured value. Some doses without a T/C left all or most animals alive at the check, yet need not have been tolerated: the source hardly ever lists a survival T/C far under the control, and the zero likely stands for such cases as well. Survivors were counted at the toxicity check, usually on the fifth day, unless a day is given; later deaths do not show. Schedules are NCI's codes, taken here to give the interval after Q, in days (D) or hours (H), and the number of doses after X. Additions like (4×) give the number of equal values in this list. Some entries were tested several times; the values are given in rising order. Where survival is the endpoint, the PubChem record calls one and a half times the control and up active, and a quarter to a half above the control has no call in these data; cut-offs in other NCI protocols can differ. Some T/C values are followed by the survivors on the day toxicity was checked, most often the fifth; without a count, all were alive then.
Tested on: BDF1 mice, B16 melanoma ip, median survival T/C
Test: NCI In Vivo Anticancer Drug Screen. Data for tumor model B16 Melanoma (intraperitoneal) in B6D2F1 (BDF1) mice
Conditions: T/C endpoint: median survival time, higher T/C = longer survival
In short: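 Each result divides a survival or tumor-size measurement in the compound-treated group by the same measurement in the vehicle group.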

[1] = dose: 2.0 mg/kg/injection, schedule: Q01DX009 (ip), vehicle: Klucel (hydroxypropylcellulose) (HPC)
[2] = dose: 4.0 mg/kg/injection, schedule: Q01DX009 (ip), vehicle: Klucel (hydroxypropylcellulose) (HPC)
[3] = dose: 4.0 mg/kg/injection, schedule: Q01DX009 (ip), vehicle: saline with Tween-80
[4] = dose: 8.0 mg/kg/injection, schedule: Q01DX009 (ip), vehicle: sodium bicarbonate
[5] = dose: 200.0 mg/kg/injection, schedule: Q01DX009 (ip), vehicle: saline with Tween-80
[6] = dose: 400.0 mg/kg/injection, schedule: Q01DX009 (ip), vehicle: saline with Tween-80

In the case of `CN(Cc1cnc2nc(N)nc(N)c2n1)c1ccc(C(=O)N[C@@H](CCC(=O)O)C(=O)O)cc1`, the T/C (dose: 0.5 mg/kg/injection, schedule: Q01DX009 (ip), vehicle: Klucel (hydroxypropylcellulose) (HPC)) is reported as 86, 94, 96, 97, 100, 102, 110, 111 % of control, the T/C (dose: 0.5 mg/kg/injection, schedule: Q01DX009 (ip), vehicle: saline with Tween-80, evaluated on day 45) is reported as 95 % of control and the T/C (dose: 0.5 mg/kg/injection, schedule: Q01DX009 (ip), vehicle: saline with Tween-80, evaluated on day 60) is reported as 100, 104, 111 % of control. For the same compound, the T/C (dose: 0.5 mg/kg/injection, schedule: Q01DX009 (ip), vehicle: saline, evaluated on day 50) was 87 and 107 % of control, the T/C (dose: 0.5 mg/kg/injection, schedule: Q01DX009 (ip), vehicle: saline, evaluated on day 60) was 93, 94 [5 of 6 alive], 97 (3×), 100 (2×), 102 (3×), 102 [5 of 6 alive], 104 (2×), 107, 108, 117, 118 % of control and the survivor count (dose: 0.5 mg/kg/injection, schedule: Q01DX009 (ip), vehicle: saline) was 6 of 6. For the same compound, the T/C (dose: 1.0 mg/kg/injection, schedule: Q01DX009 (ip), vehicle: Klucel (hydroxypropylcellulose) (HPC)) was 88, 94 (2×), 102, 106, 108, 108 [5 of 6 alive], 109 % of control, the T/C (dose: 1.0 mg/kg/injection, schedule: Q01DX009 (ip), vehicle: saline with Tween-80, evaluated on day 45) was 100 % of control and the T/C (dose: 1.0 mg/kg/injection, schedule: Q01DX009 (ip), vehicle: saline with Tween-80, evaluated on day 60) was 102 (2×) and 111 % of control. The T/C (dose: 1.0 mg/kg/injection, schedule: Q01DX009 (ip), vehicle: saline, evaluated on day 50) was 95 and 105 % of control, the T/C (dose: 1.0 mg/kg/injection, schedule: Q01DX009 (ip), vehicle: saline, evaluated on day 60) was 88, 90, 93, 94, 97 (2×), 97 [5 of 6 alive], 100 (2×), 100 [5 of 6 alive], 102 (3×), 105, 110 % of control (3×) and the survivor count (dose: 1.0 mg/kg/injection, schedule: Q01DX009 (ip), vehicle: saline) was 3 of 6. For the same compound, the T/C (dose: 1.0 mg/kg/injection, schedule: Q01DX009 (ip), vehicle: sodium bicarbonate, evaluated on day 5) was 100 % of control, the T/C (dose: 1.0 mg/kg/injection, schedule: Q01DX009 (ip), vehicle: sodium bicarbonate, evaluated on day 60) was 90, 98 (2×), 98 [9 of 10 alive], 102 (2×), 108, 109 % of control (2×) and the T/C (dose: 1.0 mg/kg/injection, schedule: Q01DX009 (ip), vehicle: sodium bicarbonate, evaluated on day 90) was 100 % of control. For the same compound, the T/C [1] was 91, 102, 103, 106, 111 (2×), 113 % of control, the survivor count [1] was 6 of 6 and the T/C (dose: 2.0 mg/kg/injection, schedule: Q01DX009 (ip), vehicle: saline with Tween-80, evaluated on day 45) was 100 % of control. For the same compound, the T/C (dose: 2.0 mg/kg/injection, schedule: Q01DX009 (ip), vehicle: saline with Tween-80, evaluated on day 60) was 88, 95, 108 % of control, the T/C (dose: 2.0 mg/kg/injection, schedule: Q01DX009 (ip), vehicle: saline, evaluated on day 50) was 92 % of control (2×) and the T/C (dose: 2.0 mg/kg/injection, schedule: Q01DX009 (ip), vehicle: saline, evaluated on day 60) was 87, 91, 92, 95, 97 (3×), 100, 104 (3×), 110, 112, 113, 117, 121, 122 % of control. The survivor count (dose: 2.0 mg/kg/injection, schedule: Q01DX009 (ip), vehicle: saline) was 3 of 6, the T/C (dose: 2.0 mg/kg/injection, schedule: Q01DX009 (ip), vehicle: sodium bicarbonate, evaluated on day 5) was 97 % of control and the T/C (dose: 2.0 mg/kg/injection, schedule: Q01DX009 (ip), vehicle: sodium bicarbonate, evaluated on day 60) was 90, 92, 95, 97, 102, 105, 106, 111 % of control. For the same compound, the T/C (dose: 2.0 mg/kg/injection, schedule: Q01DX009 (ip), vehicle: sodium bicarbonate, evaluated on day 90) was 97 % of control, the survivor count (dose: 2.0 mg/kg/injection, schedule: Q01DX009 (ip), vehicle: sodium bicarbonate) was 10 of 10 and the survivor count (dose: 3.0 mg/kg/injection, schedule: Q01DX009 (ip), vehicle: saline) was 6 of 6. For the same compound, the T/C [2] was 86, 91, 97, 102 (2×), 103 % of control, the survivor count [2] was 6 of 6 and the T/C [3] was 102 and 104 % of control. For the same compound, the survivor count [3] was 6 of 6 (2×), the T/C (dose: 4.0 mg/kg/injection, schedule: Q01DX009 (ip), vehicle: saline, evaluated on day 50) was 92 and 95 % of control and the T/C (dose: 4.0 mg/kg/injection, schedule: Q01DX009 (ip), vehicle: saline, evaluated on day 60) was 86, 88, 89, 92, 97 (2×), 100, 102, 102 [5 of 6 alive], 105 % of control. For the same compound, the survivor count (dose: 4.0 mg/kg/injection, schedule: Q01DX009 (ip), vehicle: saline) was 6 of 6, the T/C (dose: 4.0 mg/kg/injection, schedule: Q01DX009 (ip), vehicle: sodium bicarbonate, evaluated on day 5) was 32 % of control and the T/C (dose: 4.0 mg/kg/injection, schedule: Q01DX009 (ip), vehicle: sodium bicarbonate, evaluated on day 60) was 91, 93, 95, 97, 101, 109, 114 % of control. The survivor count (dose: 4.0 mg/kg/injection, schedule: Q01DX009 (ip), vehicle: sodium bicarbonate) was 9 of 10 and 10 of 10, the survivor count (dose: 6.0 mg/kg/injection, schedule: Q01DX009 (ip), vehicle: saline) was 5 of 6 and the survivor count (dose: 6.0 mg/kg/injection, schedule: Q01DX009 (ip), vehicle: sodium bicarbonate) was 10 of 10. For the same compound, the T/C [4] was 90 % of control, the survivor count [4] was 8 of 10, 9 of 10, 10 of 10 and the survivor count (dose: 12.0 mg/kg/injection, schedule: Q01DX009 (ip), vehicle: sodium bicarbonate) was 8 of 10 and 10 of 10. The T/C (dose: 16.0 mg/kg/injection, schedule: Q01DX001 (ip), vehicle: saline) was 126 % of control, the survivor count (dose: 16.0 mg/kg/injection, schedule: Q01DX009 (ip), vehicle: sodium bicarbonate) was 3 of 10, 7 of 10, 8 of 10, 9 of 10, 10 of 10 and the T/C (dose: 64.0 mg/kg/injection, schedule: Q01DX001 (ip), vehicle: saline) was 128 % of control.
With `O=C(O)CC(NC(=O)OCc1ccccc1)C(=O)O` (stereo not drawn) the survivor count (dose: 100.0 mg/kg/injection, schedule: Q01DX009 (ip), vehicle: saline) was 6 of 10, the survivor count (dose: 200.0 mg/kg/injection, schedule: Q01DX009 (ip), vehicle: saline) was 9 of 10 and the survivor count (dose: 400.0 mg/kg/injection, schedule: Q01DX009 (ip), vehicle: saline) was 9 of 10.
For `CCCCn1cnc2c(=S)nc[nH]c21`, the survivor count (dose: 50.0 mg/kg/injection, schedule: Q01DX009 (ip), vehicle: saline with Tween-80) was 6 of 6, the survivor count (dose: 100.0 mg/kg/injection, schedule: Q01DX009 (ip), vehicle: saline with Tween-80) was 6 of 6 and the survivor count [5] was 6 of 6. For the same compound, the survivor count [6] was 6 of 6.
With `Clc1ccc(CN2COc3c(ccc4cccnc34)C2)cc1Cl` the survivor count (dose: 12.5 mg/kg/injection, schedule: Q01DX009 (ip), vehicle: saline with Tween-80) was 5 of 10, the survivor count [5] was 10 of 10 and the survivor count [6] was 10 of 10.
In the case of `CC(/C=N/N=C(N)N)=N\NC(N)=S`, the survivor count (dose: 200.0 mg/kg/injection, schedule: Q01DX009 (ip), vehicle: distilled water + Tween-80) is reported as 10 of 10 and the survivor count (dose: 400.0 mg/kg/injection, schedule: Q01DX009 (ip), vehicle: distilled water + Tween-80) is reported as 0 of 10.
For `CN1CCCCC1CCN1c2ccccc2Sc2ccc(Br)cc21` (stereo not drawn), the survivor count (dose: 1.56 mg/kg/injection, schedule: Q01DX009 (ip), vehicle: saline) was 10 of 10.
With `CCO/C=C1\SC(=S)N(c2ccccc2OC)C1=O` the survivor count (dose: 200.0 mg/kg/injection, schedule: Q01DX009 (ip), vehicle: Klucel (hydroxypropylcellulose) (HPC)) was 7 of 10 and the survivor count (dose: 400.0 mg/kg/injection, schedule: Q01DX009 (ip), vehicle: Klucel (hydroxypropylcellulose) (HPC)) was 7 of 10.
`CC1(C)N=C(N)N=C(N)N1c1ccc(Cl)c(Cl)c1` was tested, and the survivor count (dose: 12.5 mg/kg/injection, schedule: Q01DX009 (ip), vehicle: Klucel (hydroxypropylcellulose) (HPC)) was 9 of 10, the survivor count (dose: 25.0 mg/kg/injection, schedule: Q01DX009 (ip), vehicle: Klucel (hydroxypropylcellulose) (HPC)) was 9 of 10 and the survivor count (dose: 50.0 mg/kg/injection, schedule: Q01DX009 (ip), vehicle: Klucel (hydroxypropylcellulose) (HPC)) was 8 of 10.

— PubChem BioAssay AID192 (DTP/NCI, 2004)
